Laboratory results: PubChem BioAssay AID540276 (National Center for Advancing Translational Sciences (NCATS), 2011)
Values joined by “and” are separate entries in the source; they are usually repeats but may differ in a detail not shown here. Identical values can stand only once. About 5,400 (1.8%) of roughly 300,000 compounds were called active. Inconclusive means that the source gave no clear call. Such entries were picked first, then a sample of the others. Calls come from the whole dose curve; tested in HEK293 cells. A potency beside an inconclusive call is a rough fit, not a confirmed value. Some compounds were tested as several samples or in several runs, with calls that do not always agree.

experiment: qHTS for inhibitors of binding or entry into cells for Marburg Virus; conditions: Marburg virus pseudotyped entry inhibition, cell reporter; activity change, negative = inhibition: at 37.8 µM (top of the series) unless noted
% is set by controls: 0 for no effect and ±100 for the full control effect; potency is the fitted concentration of half-maximal effect.

Question: With `COc1ccccc1CN1C(=O)C(=O)N(Cc2cccc(C)c2)C1=O` as the compound, how does the Potency read?
Answer: inconclusive: 4.47 µM [inhibitor, full curve, poor fit]

Question: With `CCn1cc(C(=O)N2CCN(c3cccc(Cl)c3)CC2)c2cc(OC)c(OC)cc2c1=O` as the compound, how does the Potency read?
Answer: inconclusive: 31.6 µM [inhibitor, single point]

Question: For `Cc1nnc(SCC(=O)O)s1`, which “activity change, negative = inhibition” value is on record?
Answer: inactive: 3% [at 46.1 µM]

Question: For `N#CC1(NC(=O)CN2c3cccc4cccc(c34)S2(=O)=O)CCCCC1`, which “activity change, negative = inhibition” value is on record?
Answer: inactive: -10.9%

Question: Which “activity change, negative = inhibition” value does the source give for `O=C(CC(C(=O)N1CCc2ccccc21)n1ccnc1)NCc1ccccc1` (stereo not given) here?
Answer: inactive: -4.15%

Question: With `CC(C)Oc1ccc(C(=O)NC2CCN(Cc3ccccc3)CC2)cc1` as the compound, how does the Potency read?
Answer: inconclusive: 12.6 µM [inhibitor, partial curve, poor fit]

Question: Which Potency does the source give for `CCc1ccccc1OCCOc1ccc(C)cc1OC` here?
Answer: inconclusive: 0.251 µM [activator, partial curve, poor fit]

Question: With `Cc1ccc(C)c(N2CCN(C(=O)CCc3nnc4n(CC(C)C)c(=O)c5ccccc5n34)CC2)c1` as the compound, how does the “activity change, negative = inhibition” value read?
Answer: inactive: -16% [at 46.1 µM]

Question: For `Cc1cc(CSc2ccccc2)ccc1NC(=O)c1ccc(CN2CCOCC2)cc1`, which Potency is on record?
Answer: inconclusive: 3.98 µM [inhibitor, partial curve, poor fit]

Question: With `COc1cccc(/C=N/NC(=O)C(C)n2nc(C)c([N+](=O)[O-])c2C)c1O` (stereo not given) as the compound, how does the Potency read?
Answer: inconclusive: 0.316 µM [inhibitor, full curve, poor fit]

Question: Which Potency does the source give for `Clc1ccc2nc(-c3ccccc3)c(CN3CCOCC3)n2c1` here?
Answer: inconclusive: 29.1 µM [inhibitor, single point]

Question: For `Cc1cc(C)nc(/N=C(\N)Nc2ccc(OCCC(C)C)cc2)n1`, which Potency is on record?
Answer: inconclusive: 12.6 µM [inhibitor, partial curve, poor fit]

Question: Which “activity change, negative = inhibition” value does the source give for `COC(=O)c1ccc(CSc2nc(C)nc3sc(C)c(C)c23)o1` here?
Answer: inactive: 3.06%

Question: Which Potency does the source give for `CC(=O)c1ccc2c(c1)C1C(Cl)C(Sc3ccccc3[N+](=O)[O-])CC1C(c1ccccc1[N+](=O)[O-])N2` (stereo not given) here?
Answer: inconclusive: 11.2 µM [inhibitor, partial curve, poor fit]

Question: For `CC12CC(=O)C3C(CCC4CC(=O)C=CC43C)C1CCC2=O` (stereo not given), which Potency is on record?
Answer: inconclusive: 6.31 µM [inhibitor, partial curve, poor fit]

Question: Which “activity change, negative = inhibition” value does the source give for `COc1ccccc1N1C(=O)C2C(C(=O)c3ccccc3)=NN(c3ccccc3OC)C2C1=O` (stereo not given) here?
Answer: inactive: -0.227%

Question: With `CCC(C#CCN1CCOCC1)(CC)OCCC#N` as the compound, how does the Potency read?
Answer: inconclusive: 0.501 µM [activator, single point]

Question: With `CCN(CC)c1ccc(/C=N/NC(=O)c2c[nH]c3ccccc23)cc1` as the compound, how does the “activity change, negative = inhibition” value read?
Answer: inactive: 3.6%

Question: Which Potency does the source give for `COc1ccc(CC(=O)NCC2CCCN(Cc3ccc(OC(F)(F)F)cc3)C2)cc1` (stereo not given) here?
Answer: inconclusive: 10 µM [inhibitor, partial curve]

Question: Which “activity change, negative = inhibition” value does the source give for `O=C(c1cc(F)ccc1F)C1CCCN(C(=O)c2ccc3nccnc3c2)C1` (stereo not given) here?
Answer: inactive: 21% [at 46.1 µM]

Question: Which Potency does the source give for `Cc1cc(C)c(C)c(S(=O)(=O)N2CCC(C(=O)N(C)Cc3nc4ccccc4c(=O)[nH]3)CC2)c1C` here?
Answer: inconclusive: 25.1 µM [inhibitor, single point]

Question: For `C#CCSc1nc(-c2ccccc2)cc(-c2ccccc2)c1C#N`, which “activity change, negative = inhibition” value is on record?
Answer: inactive: -11.1% [at 46.1 µM]

Question: For `Cc1ccc(-n2c3c(cc(-c4nc(-c5ccc(Cl)cc5)cs4)c2=O)C(=O)CC(C)(C)C3)cc1C`, which “activity change, negative = inhibition” value is on record?
Answer: inactive: -27.8% [at 46.1 µM]

Question: For `CCN(CC)C(=O)CSc1nc2cc3c(cc2c(=O)n1Cc1ccc2c(c1)OCO2)OCO3`, which “activity change, negative = inhibition” value is on record?
Answer: inactive: -0.439%

Question: For `Cc1ccc2c(c1)C1CN(C)CCC1N2C(=O)/C=C/c1ccc2c(c1)OCO2` (stereo not given), which Potency is on record?
Answer: inconclusive: 35.5 µM [inhibitor, single point]

Question: For `CC(=O)NC1=NN(C(C)=O)C(c2ccc(C)cc2)S1` (stereo not given), which Potency is on record?
Answer: inconclusive: 1.41 µM [inhibitor, partial curve, poor fit]

Question: Which Potency does the source give for `O=C(NC(=S)NC1CCCc2ccccc21)c1ccco1` (stereo not given) here?
Answer: inconclusive: 35.5 µM [inhibitor, single point]

Question: For `O=C(NCCSCc1ccc(Cl)cc1Cl)c1ccc(CN2CCOCC2)cc1`, which Potency is on record?
Answer: inconclusive: 17.8 µM [inhibitor, partial curve, poor fit]

Question: With `CCCNC(=O)NC(=O)CSc1nc2ccccc2n1CC(C)C` as the compound, how does the Potency read?
Answer: inconclusive: 29.1 µM [inhibitor, single point]

Question: With `Cc1c(Cl)ccc2c(C(N)=O)cc(-c3ccccn3)nc12` as the compound, how does the Potency read?
Answer: inconclusive: 5.62 µM [inhibitor, single point]

Question: Which Potency does the source give for `CC1CCN(CCC(=O)Nc2ccc(Br)cc2)CC1` here?
Answer: inconclusive: 18.3 µM [inhibitor, partial curve, poor fit]

Question: For `COc1ccccc1OCC(=O)Nc1ccc(S(=O)(=O)Nc2cc(C)nc(C)n2)cc1`, which Potency is on record?
Answer: inconclusive: 0.631 µM [activator, full curve, poor fit]

Question: Which Potency does the source give for `CCCCn1cc(SCC(=O)O)c2ccccc21` here?
Answer: inconclusive: 1.3 µM [inhibitor, full curve, poor fit]

Question: With `CCCCn1c(N)c(N(CC)C(=O)CSCC(=O)Nc2ccc(OC)cc2)c(=O)[nH]c1=O` as the compound, how does the Potency read?
Answer: inconclusive: 5.62 µM [inhibitor, single point]

Question: With `OCC(Cc1ccccc1)Nc1c2ccccc2nc2ccccc12` (stereo not given) as the compound, how does the Potency read?
Answer: inconclusive: 35.5 µM [inhibitor, single point]

Question: For `Cc1csc(NC(=O)CCc2c(C)nc3cc(-c4ccc(Cl)cc4)nn3c2C)n1`, which “activity change, negative = inhibition” value is on record?
Answer: inactive: -35%

Question: With `COC(=O)c1ccc(NC(=O)CSc2nncn2C)cc1` as the compound, how does the “activity change, negative = inhibition” value read?
Answer: inactive: 2.14%

Question: Which Potency does the source give for `Cc1ccc2c(c1)N=C(c1ccc(F)cc1)CO2` here?
Answer: inconclusive: 28.2 µM [activator, single point]

Question: For `COC(=O)Oc1nsnc1N1CCOCC1`, which “activity change, negative = inhibition” value is on record?
Answer: inactive: -2.9%

Question: With `CCN(CC)C(=O)C1CCCN(C(=O)CCn2nnnc2CN2CCOCC2)C1` (stereo not given) as the compound, how does the Potency read?
Answer: inconclusive: 35.5 µM [inhibitor, partial curve, poor fit]

Question: For `COc1ccc(NC(=O)c2ccc3c(SCC(=O)O)c4c(nc3c2)CCCC4)c(OC)c1`, which Potency is on record?
Answer: inactive

Question: For `O=C(CCN1C(=O)/C(=C/c2ccccc2Cl)SC1=S)NNC(=O)c1cccnc1`, which Potency is on record?
Answer: inconclusive: 5.62 µM [inhibitor, single point]

Question: With `Cc1ccc2c(C)nc(Nc3nc(CSc4nc5ccccc5[nH]4)cc(=O)[nH]3)nc2c1` as the compound, how does the Potency read?
Answer: inconclusive: 18.3 µM [inhibitor, single point]

Question: For `O=c1cnn(-c2ccccc2)c(-c2ccccc2)c1`, which Potency is on record?
Answer: inconclusive: 20.6 µM [inhibitor, single point]

Question: For `Cc1ccc2nc(-c3ccc(NC(=S)NC(=O)CC(C)C)cc3)sc2c1`, which Potency is on record?
Answer: inconclusive: 0.13 µM [activator, full curve, poor fit]

Question: For `COc1cc(/C=N/NC(=S)Nc2cccnc2)cc(OC)c1O`, which Potency is on record?
Answer: inconclusive: 35.5 µM [activator, single point]

Question: Which Potency does the source give for `COc1cc(/C=N/N=C2/NC(=O)C(Cc3ccc(F)cc3)S2)ccc1O` (stereo not given) here?
Answer: inconclusive: 5.62 µM [activator, single point]

Question: Which “activity change, negative = inhibition” value does the source give for `CCN(CC)C(=O)Cn1c(=O)n(-c2ccc(C)c(C)c2)c(=O)c2c3c(sc21)CCCCC3` here?
Answer: inactive: 25.2% [at 46.1 µM]

Question: Which “activity change, negative = inhibition” value does the source give for `Cc1ccc(NC(=O)CSCC(=O)N=c2sccn2C)cc1` here?
Answer: inactive: -11%

Question: Which “activity change, negative = inhibition” value does the source give for `Cc1cccc(NC(=O)c2cc(S(=O)(=O)NCc3ccco3)ccc2F)c1C` here?
Answer: inactive: -16.9%

Question: Which “activity change, negative = inhibition” value does the source give for `N#CNC(=Nc1ccccc1)SCc1ccc(C(=O)O)cc1` here?
Answer: inactive: -0.667% [at 46.1 µM]

Question: For `CC(NC(=O)c1cccnc1)C(c1cccs1)N1CCOCC1` (stereo not given), which Potency is on record?
Answer: inconclusive: 0.112 µM [activator, full curve, poor fit]

Question: For `O=C(O)c1cccc(-c2nnn(Cc3ccccc3)n2)c1`, which Potency is on record?
Answer: inconclusive: 10 µM [inhibitor, partial curve]

Question: With `CC(OC(=O)c1ccccc1C(=O)N(C)c1ccccc1)C(=O)Nc1ccccc1[N+](=O)[O-]` (stereo not given) as the compound, how does the “activity change, negative = inhibition” value read?
Answer: inactive: 0.508%

Question: For `COc1ccc(CN2CCN(S(=O)(=O)c3ccc(C)cc3)CC2)cc1OC`, which “activity change, negative = inhibition” value is on record?
Answer: inactive: -9.6%

Question: Which Potency does the source give for `Cc1c(C)c2ccc(OCC(=O)NC3CCN(Cc4ccccc4)CC3)c(C)c2oc1=O` here?
Answer: inconclusive: 1.58 µM [inhibitor, full curve, poor fit]

Question: With `O=C(NC1CCN(S(=O)(=O)c2cccc([N+](=O)[O-])c2)CC1)C1CCCCC1` as the compound, how does the “activity change, negative = inhibition” value read?
Answer: inactive: -2.38% [at 46.1 µM]

Question: Which Potency does the source give for `COc1ccc(NC(C)=O)cc1CNC(=O)COc1c(C)c(C)cc(C)c1C` here?
Answer: inconclusive: 3.16 µM [inhibitor, single point]

Question: For `Cc1cc(=O)[nH]c(SCc2ccccc2)n1`, which “activity change, negative = inhibition” value is on record?
Answer: inactive: -3.32% [at 46.1 µM]

Question: For `Cc1cc(C(=O)N/N=C/c2c(CO)cnc(C)c2O)c2ccccc2n1`, which Potency is on record?
Answer: inconclusive: 35.5 µM [inhibitor, single point]

Question: With `COCCCNC(=O)c1ccc2c(=O)n(CC3CCCO3)c(=S)[nH]c2c1` (stereo not given) as the compound, how does the “activity change, negative = inhibition” value read?
Answer: inactive: -0.537%

Question: With `Cc1ccc(-n2nc3c([n+]2[O-])CCc2nonc2-3)cc1` as the compound, how does the Potency read?
Answer: inconclusive: 0.631 µM [activator, full curve, poor fit]

Question: Which “activity change, negative = inhibition” value does the source give for `O=C(CSc1nnc(COc2ccccc2)n1Cc1ccco1)c1ccc(F)cc1` here?
Answer: inactive: -0.142%

Question: For `CC(C)C(C)NC(=O)COc1ccc(Sc2ccc(OCC(=O)NC(C)C(C)C)cc2)cc1` (stereo not given), which Potency is on record?
Answer: inconclusive: 22.4 µM [inhibitor, single point]

Question: Which Potency does the source give for `COc1ccc(/C=N/NC(=O)c2ccncc2)cc1Cn1nc([N+](=O)[O-])c(Br)c1C` here?
Answer: inconclusive: 0.891 µM [inhibitor, full curve, poor fit]

Question: Which Potency does the source give for `CC(C)NS(=O)(=O)c1ccc(OCC(=O)N2CCN(Cc3ccc4c(c3)OCO4)CC2)c(Cl)c1` here?
Answer: inconclusive: 25.9 µM [inhibitor, single point]

Question: With `COc1cccc(NC(=O)CCN2CCN(c3ccccc3)CC2)c1` as the compound, how does the “activity change, negative = inhibition” value read?
Answer: inactive: 5.84% [at 46.1 µM]

Question: With `COc1ccc(CC2(CO)CCN(Cc3ccc4c(c3)CCO4)CC2)cc1` as the compound, how does the Potency read?
Answer: inconclusive: 2.51 µM [inhibitor, full curve, poor fit]

Question: With `O=S(=O)(c1ccccc1C(F)(F)F)N1CCN(c2ncnc3sccc23)CC1` as the compound, how does the Potency read?
Answer: inconclusive: 0.251 µM [inhibitor, full curve, poor fit]
